Assay results published in PMC11749472.
No constants are given. Whether binding was seen depends on the method and setting. Binding seen in cells or lysates may run through a third protein. Here binding means that the protein was enriched with, or labelled near, the bait; the list need not be complete. For part of these data: A no says only that the protein was not detected with the bait. For part of these data: Sequences can lack the tags named with a protein.

Protein sequences, listed by entry. Tags and fused reporters are not part of them. Residues count along the entry.
UniProt Q9UKV5: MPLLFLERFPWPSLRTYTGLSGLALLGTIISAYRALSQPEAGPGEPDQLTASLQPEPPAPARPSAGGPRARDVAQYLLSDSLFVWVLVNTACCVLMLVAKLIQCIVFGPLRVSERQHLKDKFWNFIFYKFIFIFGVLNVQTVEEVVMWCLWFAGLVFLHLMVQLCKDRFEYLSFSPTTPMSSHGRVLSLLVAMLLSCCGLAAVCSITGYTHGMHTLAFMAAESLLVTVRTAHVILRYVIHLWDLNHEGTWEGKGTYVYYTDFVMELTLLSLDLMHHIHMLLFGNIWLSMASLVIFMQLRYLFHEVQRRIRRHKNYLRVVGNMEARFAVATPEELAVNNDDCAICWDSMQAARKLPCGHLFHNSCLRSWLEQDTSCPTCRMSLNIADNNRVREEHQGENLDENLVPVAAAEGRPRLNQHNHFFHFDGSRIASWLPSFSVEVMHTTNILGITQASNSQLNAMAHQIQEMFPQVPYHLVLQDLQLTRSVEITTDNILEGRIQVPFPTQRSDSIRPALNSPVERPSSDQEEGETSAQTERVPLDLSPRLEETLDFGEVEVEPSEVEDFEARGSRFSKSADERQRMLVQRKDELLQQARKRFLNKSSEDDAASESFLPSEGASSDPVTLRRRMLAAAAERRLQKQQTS
UniProt O43765: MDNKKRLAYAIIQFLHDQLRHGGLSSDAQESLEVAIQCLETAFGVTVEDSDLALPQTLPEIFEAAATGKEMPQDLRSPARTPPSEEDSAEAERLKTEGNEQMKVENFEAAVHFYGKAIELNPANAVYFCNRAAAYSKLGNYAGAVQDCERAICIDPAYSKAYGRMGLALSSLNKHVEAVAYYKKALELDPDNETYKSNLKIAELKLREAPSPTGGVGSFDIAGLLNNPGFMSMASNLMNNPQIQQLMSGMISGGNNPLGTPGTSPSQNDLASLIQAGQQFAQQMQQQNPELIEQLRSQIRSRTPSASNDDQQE
UniProt Q9BXM7, residues 78-581: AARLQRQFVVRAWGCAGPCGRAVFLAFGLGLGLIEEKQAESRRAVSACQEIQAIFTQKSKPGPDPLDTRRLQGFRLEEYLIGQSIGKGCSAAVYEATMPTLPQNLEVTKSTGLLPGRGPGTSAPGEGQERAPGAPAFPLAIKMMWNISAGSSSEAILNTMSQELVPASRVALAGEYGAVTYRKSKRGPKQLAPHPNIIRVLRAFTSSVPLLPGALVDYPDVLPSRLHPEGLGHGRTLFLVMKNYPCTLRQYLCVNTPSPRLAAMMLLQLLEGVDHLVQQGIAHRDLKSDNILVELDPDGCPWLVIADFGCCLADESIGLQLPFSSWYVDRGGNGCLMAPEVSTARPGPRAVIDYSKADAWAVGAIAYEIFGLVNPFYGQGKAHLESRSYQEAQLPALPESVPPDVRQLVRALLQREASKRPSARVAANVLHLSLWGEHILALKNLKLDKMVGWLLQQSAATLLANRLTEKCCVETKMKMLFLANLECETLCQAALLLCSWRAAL

T1: SARM1-V5-APEX2 (full-length sterile alpha and Toll/interleukin 1 receptor motif-containing protein 1 fused to V5-APEX2) (human) (UniProt Q6SZW1)
T1 sequence: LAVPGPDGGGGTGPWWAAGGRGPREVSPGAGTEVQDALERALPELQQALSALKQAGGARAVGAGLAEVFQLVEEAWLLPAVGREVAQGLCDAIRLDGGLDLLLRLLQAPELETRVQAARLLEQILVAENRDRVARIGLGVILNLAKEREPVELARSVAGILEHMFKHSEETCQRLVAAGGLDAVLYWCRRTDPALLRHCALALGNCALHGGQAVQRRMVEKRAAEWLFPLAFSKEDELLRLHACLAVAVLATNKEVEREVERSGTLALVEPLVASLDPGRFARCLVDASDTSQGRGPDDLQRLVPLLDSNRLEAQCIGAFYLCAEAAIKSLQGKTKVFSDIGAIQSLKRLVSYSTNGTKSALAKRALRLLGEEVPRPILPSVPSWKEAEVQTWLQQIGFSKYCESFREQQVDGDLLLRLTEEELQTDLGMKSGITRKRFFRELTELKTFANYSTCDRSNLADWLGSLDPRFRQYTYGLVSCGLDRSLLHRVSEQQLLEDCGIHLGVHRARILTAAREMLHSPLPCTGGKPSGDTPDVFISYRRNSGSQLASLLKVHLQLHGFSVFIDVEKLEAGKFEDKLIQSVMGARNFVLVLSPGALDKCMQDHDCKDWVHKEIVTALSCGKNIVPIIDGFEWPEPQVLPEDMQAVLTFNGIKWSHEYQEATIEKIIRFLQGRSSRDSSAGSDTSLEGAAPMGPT

T2: SARM1-V5-APEX2 (full-length sterile alpha and Toll/interleukin 1 receptor motif-containing protein 1 fused to V5-APEX2) (human), Q6SZW1
T2 chain: T1 sequence

B1: ubiquitin-specific peptidase 13 (USP13), endogenous in HEK293T, Q92995 1-863 (enzyme)
chain: MQRRGALFGMPGGSGGRKMAAGDIGELLVPHMPTIRVPRSGDRVYKNECAFSYDSPNSEGGLYVCMNTFLAFGREHVERHFRKTGQSVYMHLKRHVREKVRGASGGALPKRRNSKIFLDLDTDDDLNSDDYEYEDEAKLVIFPDHYEIALPNIEELPALVTIACDAVLSSKSPYRKQDPDTWENELPVSKYANNLTQLDNGVRIPPSGWKCARCDLRENLWLNLTDGSVLCGKWFFDSSGGNGHALEHYRDMGYPLAVKLGTITPDGADVYSFQEEEPVLDPHLAKHLAHFGIDMLHMHGTENGLQDNDIKLRVSEWEVIQESGTKLKPMYGPGYTGLKNLGNSCYLSSVMQAIFSIPEFQRAYVGNLPRIFDYSPLDPTQDFNTQMTKLGHGLLSGQYSKPPVKSELIEQVMKEEHKPQQNGISPRMFKAFVSKSHPEFSSNRQQDAQEFFLHLVNLVERNRIGSENPSDVFRFLVEERIQCCQTRKVRYTERVDYLMQLPVAMEAATNKDELIAYELTRREAEANRRPLPELVRAKIPFSACLQAFSEPENVDDFWSSALQAKSAGVKTSRFASFPEYLVVQIKKFTFGLDWVPKKFDVSIDMPDLLDINHLRARGLQPGEEELPDISPPIVIPDDSKDRLMNQLIDPSDIDESSVMQLAEMGFPLEACRKAVYFTGNMGAEVAFNWIIVHMEEPDFAEPLTMPGYGGAASAGASVFGASGLDNQPPEEIVAIITSMGFQRNQAIQALRATNNNLERALDWIFSHPEFEEDSDFVIEMENNANANIISEAKPEGPRVKDGSGTYELFAFISHMGTSTMSGHYICHIKKEGRWVIYNDHKVCASERPPKDLGYMYFYRRIPS
B2: ubiquitin-specific peptidase 13 (USP13), endogenous in HEK293T (enzyme, UniProt Q92995 1-863)
chain: B1 chain

Legend:
[1] = molecular target: T1, SARM1-V5-APEX2 (full-length sterile alpha and Toll/interleukin 1 receptor motif-containing protein 1 fused to V5-APEX2) (human); assay: proximity labelling; APEX2 fusions expressed in HEK293T cells; biotin-phenol 30 min, 1 mM H2O2 1 min; lysis in RIPA buffer, streptavidin magnetic beads, LC-MS/MS; normalised to N27-V5-APEX2 (fold change > 1.2, P < 0.05)
[2] = molecular target: T1, SARM1-V5-APEX2 (full-length sterile alpha and Toll/interleukin 1 receptor motif-containing protein 1 fused to V5-APEX2) (human); assay: proximity labelling; SARM1-V5-APEX2 in cells; biotinylation of PINK1 examined, compared with the vector or N27-V5-APEX2 control (Fig. S3)
[3] = molecular target: T2, SARM1-V5-APEX2 (full-length sterile …); assay: proximity labelling; APEX2 fusions expressed in HEK293T cells; biotin-phenol 30 min, 1 mM H2O2 1 min; lysis in RIPA buffer, streptavidin magnetic beads, LC-MS/MS; normalised to N27-V5-APEX2 (fold change > 1.2, P < 0.05); settings: remark: other sources report otherwise
[4] = molecular target: ARM-V5-APEX2 (N-terminal armadillo repeat motif domain of SARM1 fused to V5-APEX2) (human); assay: as above

| binding [1] | also measured | Molecule |
| --- | --- | --- |
| binds | – | glycoprotein 78 (GP78), endogenous in HEK293T (from UniProt Q9UKV5 1-643) (enzyme) |
| no binding | – | small glutamine-rich tetratricopeptide repeat-containing protein alpha (SGTA), endogenous in HEK293T (from UniProt O43765 1-313) |
| – | binding [2]: binds | PINK1 (from UniProt Q9BXM7 78-581) |
| no binding | – | valosin-containing protein (VCP), endogenous in HEK293T (from UniProt P55072 1-806) |
| – | binding [3]: binds | B1 |
| – | binding [4]: binds | B2 |
